These are yes or no findings as the source states them, for the method shown. Some entries that bind do so weakly or less than the wild type. For part of these data: Sequences can lack the tags named with a protein.

Sequences of proteins named here, by UniProt entry; tags and fusion partners are left off.
UniProt Q8C2B3: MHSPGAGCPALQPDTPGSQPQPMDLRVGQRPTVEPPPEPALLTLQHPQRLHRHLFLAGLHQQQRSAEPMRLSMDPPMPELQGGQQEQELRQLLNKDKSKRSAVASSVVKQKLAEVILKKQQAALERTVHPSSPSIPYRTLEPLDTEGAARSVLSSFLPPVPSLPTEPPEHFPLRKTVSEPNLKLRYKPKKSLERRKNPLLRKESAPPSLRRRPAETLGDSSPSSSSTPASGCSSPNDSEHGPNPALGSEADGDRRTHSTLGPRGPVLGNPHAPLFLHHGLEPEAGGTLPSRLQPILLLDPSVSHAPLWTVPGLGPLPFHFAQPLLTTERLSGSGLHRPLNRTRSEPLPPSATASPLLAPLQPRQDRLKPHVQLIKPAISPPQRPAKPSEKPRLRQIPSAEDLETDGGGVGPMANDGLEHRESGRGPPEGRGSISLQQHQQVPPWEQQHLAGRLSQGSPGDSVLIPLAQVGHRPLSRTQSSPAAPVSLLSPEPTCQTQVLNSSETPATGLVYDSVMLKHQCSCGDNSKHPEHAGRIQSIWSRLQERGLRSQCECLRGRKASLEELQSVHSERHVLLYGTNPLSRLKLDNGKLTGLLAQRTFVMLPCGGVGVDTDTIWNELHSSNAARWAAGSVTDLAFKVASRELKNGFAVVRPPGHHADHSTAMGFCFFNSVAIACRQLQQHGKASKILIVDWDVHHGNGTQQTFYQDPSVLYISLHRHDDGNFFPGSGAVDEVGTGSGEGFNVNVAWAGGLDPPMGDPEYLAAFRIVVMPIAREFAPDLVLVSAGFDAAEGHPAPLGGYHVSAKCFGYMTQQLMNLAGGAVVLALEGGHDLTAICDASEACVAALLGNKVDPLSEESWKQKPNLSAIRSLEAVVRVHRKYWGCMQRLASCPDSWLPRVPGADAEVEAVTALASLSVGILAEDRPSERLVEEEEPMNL

Experiment [1] concerns the target T1, FLAG-tagged human HDAC7 (human) (UniProt Q8WUI4).
T1 sequence (looked up): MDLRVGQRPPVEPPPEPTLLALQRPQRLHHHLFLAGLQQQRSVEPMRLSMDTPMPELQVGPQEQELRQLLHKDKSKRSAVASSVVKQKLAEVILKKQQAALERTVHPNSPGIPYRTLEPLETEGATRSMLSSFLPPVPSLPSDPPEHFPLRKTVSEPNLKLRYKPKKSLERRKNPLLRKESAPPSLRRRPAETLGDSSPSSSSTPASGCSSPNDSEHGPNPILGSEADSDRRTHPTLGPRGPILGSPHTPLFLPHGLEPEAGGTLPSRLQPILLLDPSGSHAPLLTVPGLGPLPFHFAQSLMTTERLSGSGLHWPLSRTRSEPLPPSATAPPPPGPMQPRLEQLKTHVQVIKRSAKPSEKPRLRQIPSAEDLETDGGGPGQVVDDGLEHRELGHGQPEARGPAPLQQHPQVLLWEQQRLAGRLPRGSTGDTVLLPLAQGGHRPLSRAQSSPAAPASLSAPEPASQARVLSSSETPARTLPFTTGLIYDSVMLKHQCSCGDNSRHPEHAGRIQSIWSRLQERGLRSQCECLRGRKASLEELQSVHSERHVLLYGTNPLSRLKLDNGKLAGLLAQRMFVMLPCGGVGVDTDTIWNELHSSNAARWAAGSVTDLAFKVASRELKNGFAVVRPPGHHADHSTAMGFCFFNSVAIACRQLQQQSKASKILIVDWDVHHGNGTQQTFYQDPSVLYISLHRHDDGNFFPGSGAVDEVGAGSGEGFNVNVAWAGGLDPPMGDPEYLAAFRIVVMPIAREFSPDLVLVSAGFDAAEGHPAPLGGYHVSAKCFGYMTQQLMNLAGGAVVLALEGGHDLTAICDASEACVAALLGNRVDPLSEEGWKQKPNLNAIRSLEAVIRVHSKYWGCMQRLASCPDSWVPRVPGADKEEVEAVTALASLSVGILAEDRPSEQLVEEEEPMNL
Description: anti-FLAG immunoprecipitation of HDAC7-Flag from DO11.10 cells, Western blot. On the technique in general: In western blotting, separated proteins are transferred to a membrane and probed.

The target in experiment [2] is T1, FLAG-tagged human HDAC7 (human). The experiment is described as follows: anti-FLAG immunoprecipitation of HDAC7-Flag from DO11.10 cells, Western blot for endogenous partner.
Experiment [3] addresses endogenous HDAC7 of mouse cells (primary thymocytes; DO11.10-Empty cells) (mouse) (UniProt Q8C2B3). The experiment is described as follows: immunoprecipitation with α-MYPT1 from mouse primary thymocyte lysate, anti-HDAC7 Western blot.

B1: HDAC7 kinase, PKD1 (enzyme, UniProt Q62101 1-918, looked up)
chain: MSVPPLLRPPSPLLPAAAAVAAAAAALVPGSGPAPFPAPGAAPAGGISFHLQIGLSREPVLLLQDSSGDYSLAHVREMACSIVDQKFPECGFYGLYDKILLFRHDPASDNILQLVKIASDIQEGDLIEVVLSASATFEDFQIRPHALFVHSYRAPAFCDHCGEMLWGLVRQGLKCEGCGLNYHKRCAFKIPNNCSGVRRRRLSNVSLTGLGTVRTASAEFSTSVPDEPLLSPVSPGFEQKSPSESFIGREKRSNSQSYIGRPIQLDKLLMSKVKVPHTFVIHSYTRPTVCQFCKKLLKGLFRQGLQCKDCRFNCHKRCAPKVPNNCLGEVTINGELLSPGAESDVVMEEGSDDNDSERNSGLMDDMDEAMVQDTEMALAEGQSGGAEMQDPDADQEDSNRTISPSTSNNIPLMRVVQSVKHTKRRSSTVMKEGWMVHYTSKDTLRKRHYWRLDSKCITLFQNDTGSRYYKEIPLSEILCLEPAKPSALTPVGATPHCFEITTANVVYYVGENVVNPSSSPPNNSVLPSGIGPDVARMWEVAIQHALMPVIPKGSSVGSGSNSHKDISVSISVSNCQIQENVDISTVYQIFPDEVLGSGQFGIVYGGKHRKTGRDVAIKIIDKLRFPTKQESQLRNEVAILQNLHHPGVVNLECMFETPERVFVVMEKLHGDMLEMILSSEKGRLPEHITKFLITQILVALRHLHFKNIVHCDLKPENVLLASADPFPQVKLCDFGFARIIGEKSFRRSVVGTPAYLAPEVLRNKGYNRSLDMWSVGVIIYVSLSGTFPFNEDEDIHDQIQNAAFMYPPNPWKEISHEAIDLINNLLQVKMRKRYSVDKTLSHPWLQDYQTWLDLRELECRIGERYITHESDDSRWEQYAGEQGLQYPAHLISLSASHSDSPEAEEREMKALSERVSIL
On to B1, for which, in experiment [1], the binding result is reported as “binds”.

B2: Protein phosphatase 1 regulatory subunit 12A (Myosin phosphatase targeting subunit 1) (protein, mouse, UniProt Q9DBR7 1-1029, looked up)
chain: MKMADAKQKRNEQLKRWIGSETDLEPPVVKRQKTKVKFDDGAVFLAACSSGDTDEVLKLLHRGADINYANVDGLTALHQACIDDNVDMVKFLVENGANINQPDNEGWIPLHAAASCGYLDIAEFLIGQGAHVGAVNSEGDTPLDIAEEEAMEELLQNEVNRQGVDIEAARKEEERVMLRDARQWLNSGHISDVRHAKSGGTALHVAAAKGYTEVLKLLIQAGYDVNIKDYDGWTPLHAAAHWGKEEACRILVDNLCDMETVNKVGQTAFDVADEDILGYLEELQKKQTLLHSEKRDKKSPLIESTANMENNQPQKAFKNKETLIIEPEKNASRIESLEHEKADEEEEGKKDESSCSSEEDEEDDSESEAETDKTKPMASVSNAHTSSTQAAPAAVTAPTLSSNQGTPTSPVKKFPISTTKISPKEEERKDESPASWRLGLRKTGSYGALAEISASKEAQKEKDTAGVMRSASSPRLSSSLDNKEKEKDNKGTRLAYVTPTIPRRLASTSDIEEKENRESSSLRTSSSYTRRKWEDDLKKNSSINEGSTYHRSCSFGRRQDDLISCSVPSTTSTPTVTSAAGLQRSLPSSTSTAAKTPPGSSSAGTQSSTSNRLWAEDSTEKEKDSAPTAVTIPVAPTVVNAAAPSTTTLTTTTAGTVSEVRERRRSYLTPVRDEESESQRKARSRQARQSRRSTQGVTLTDLQEAEKTIGRSRSTRTREQENEEKEKEEKEKQDKEKQEEKKESEASREDEYKQKYSRTYDETYTRYRPVSTSSSSAPSSSSLSTLGSTLYASSQLNRPNSLVGITSAYSRGLAKENEREGEKKEEEKEGEDKSQPKSIRERRRPREKRRSTGVSFWTQDSDENEQERQSDTEDGSSKRETQTDSVSRYDSSSTSSSDRYDSLLGRSASYSYLEDRKPYSSRLEKDDSTDFKKLYEQILAENEKLKAQLHDTNMELTDLKLQLEKATQRQERFADRSQLEMEKRERRALERRISEMEEELKMLPDLKADNQRLKDENGALIRVISKLSK
Turning to B2, the binding entry in experiment [2] and in experiment [3] was “binds” throughout.
